Assay results as given in ChEMBL document CHEMBL4316593 (Eur J Med Chem, 2019).
Further values from the same series stand in other lists.

Assays:
Assay type in all cases: cell-based
Conditions in all cases: U-87MG ATCC
[1] = Inhibition of RTK/PI3K/AKT/mTOR signaling in human U87 cells assessed as down regulation of MCM4 gene expression at cytotoxic IC50 measured after 48 hrs relative to control
[2] = Inhibition of RTK/PI3K/AKT/mTOR signaling in human U87 cells assessed as down regulation of CHSY3 gene expression at cytotoxic IC50 measured after 48 hrs relative to control
[3] = Inhibition of RTK/PI3K/AKT/mTOR signaling in human U87 cells assessed as down regulation of NAV3 gene expression at cytotoxic IC50 measured after 48 hrs relative to control
[4] = Inhibition of RTK/PI3K/AKT/mTOR signaling in human U87 cells assessed as down regulation of NOCT gene expression at cytotoxic IC50 measured after 48 hrs relative to control
[5] = Inhibition of RTK/PI3K/AKT/mTOR signaling in human U87 cells assessed as down regulation of NDOR1 gene expression at cytotoxic IC50 measured after 48 hrs relative to control
[6] = Inhibition of RTK/PI3K/AKT/mTOR signaling in human U87 cells assessed as down regulation of GDAP1 gene expression at cytotoxic IC50 measured after 48 hrs relative to control
[7] = Inhibition of RTK/PI3K/AKT/mTOR signaling in human U87 cells assessed as down regulation of TPM1 gene expression at cytotoxic IC50 measured after 48 hrs relative to control
[8] = Inhibition of RTK/PI3K/AKT/mTOR signaling in human U87 cells assessed as down regulation of EMC2 gene expression at cytotoxic IC50 measured after 48 hrs relative to control
[9] = Inhibition of RTK/PI3K/AKT/mTOR signaling in human U87 cells assessed as down regulation of QDPR gene expression at cytotoxic IC50 measured after 48 hrs relative to control
[10] = Inhibition of RTK/PI3K/AKT/mTOR signaling in human U87 cells assessed as down regulation of PCTP gene expression at cytotoxic IC50 measured after 48 hrs relative to control
[11] = Inhibition of RTK/PI3K/AKT/mTOR signaling in human U87 cells assessed as down regulation of FEM1B gene expression at cytotoxic IC50 measured after 48 hrs relative to control
[12] = Inhibition of RTK/PI3K/AKT/mTOR signaling in human U87 cells assessed as down regulation of NSRP1 gene expression at cytotoxic IC50 measured after 48 hrs relative to control
[13] = Inhibition of RTK/PI3K/AKT/mTOR signaling in human U87 cells assessed as down regulation of GYG1 gene expression at cytotoxic IC50 measured after 48 hrs relative to control
[14] = Inhibition of RTK/PI3K/AKT/mTOR signaling in human U87 cells assessed as down regulation of PPP2CA gene expression at cytotoxic IC50 measured after 48 hrs relative to control
[15] = Inhibition of RTK/PI3K/AKT/mTOR signaling in human U87 cells assessed as up regulation of PDK1 gene expression at cytotoxic IC50 measured after 48 hrs relative to control
[16] = Inhibition of RTK/PI3K/AKT/mTOR signaling in human U87 cells assessed as up regulation of HAS3 gene expression at cytotoxic IC50 measured after 48 hrs relative to control
[17] = Inhibition of RTK/PI3K/AKT/mTOR signaling in human U87 cells assessed as up regulation of EZR gene expression at cytotoxic IC50 measured after 48 hrs relative to control
[18] = Inhibition of RTK/PI3K/AKT/mTOR signaling in human U87 cells assessed as up regulation of BTBD19 gene expression at cytotoxic IC50 measured after 48 hrs relative to control
[19] = Inhibition of RTK/PI3K/AKT/mTOR signaling in human U87 cells assessed as up regulation of adhesion G protein-coupled receptor A2 gene expression at cytotoxic IC50 measured after 48 hrs relative to control
[20] = Inhibition of RTK/PI3K/AKT/mTOR signaling in human U87 cells assessed as up regulation of chromosome 4 open reading frame 3 gene expression at cytotoxic IC50 measured after 48 hrs relative to control
[21] = Inhibition of RTK/PI3K/AKT/mTOR signaling in human U87 cells assessed as up regulation of laminin subunit alpha 5 gene expression at cytotoxic IC50 measured after 48 hrs relative to control
[22] = Inhibition of RTK/PI3K/AKT/mTOR signaling in human U87 cells assessed as up regulation of myosin light chain 6B gene expression at cytotoxic IC50 measured after 48 hrs relative to control
[23] = Inhibition of RTK/PI3K/AKT/mTOR signaling in human U87 cells assessed as up regulation of stearoyl-CoA desaturase gene expression at cytotoxic IC50 measured after 48 hrs relative to control
[24] = Inhibition of RTK/PI3K/AKT/mTOR signaling in human U87 cells assessed as up regulation of solute carrier family 29 member 2 gene expression at cytotoxic IC50 measured after 48 hrs relative to control
[25] = Inhibition of RTK/PI3K/AKT/mTOR signaling in human U87 cells assessed as up regulation of vav guanine nucleotide exchange factor 1 gene expression at cytotoxic IC50 measured after 48 hrs relative to control
[26] = Inhibition of RTK/PI3K/AKT/mTOR signaling in human U87 cells assessed as up regulation of N-acetyltransferase 14 (putative) gene expression at cytotoxic IC50 measured after 48 hrs relative to control
[27] = Inhibition of RTK/PI3K/AKT/mTOR signaling in human U87 cells assessed as up regulation of calponin 3 gene expression at cytotoxic IC50 measured after 48 hrs relative to control
[28] = Inhibition of RTK/PI3K/AKT/mTOR signaling in human U87 cells assessed as up regulation of LMBR1 domain containing 1 gene expression at cytotoxic IC50 measured after 48 hrs relative to control
[29] = Inhibition of RTK/PI3K/AKT/mTOR signaling in human U87 cells assessed as up regulation of bone morphogenetic protein receptor type 1A gene expression at cytotoxic IC50 measured after 48 hrs relative to control
[30] = Inhibition of RTK/PI3K/AKT/mTOR signaling in human U87 cells assessed as up regulation of GTF2I repeat domain containing 1 gene expression at cytotoxic IC50 measured after 48 hrs relative to control
[31] = Inhibition of RTK/PI3K/AKT/mTOR signaling in human U87 cells assessed as up regulation of SYNCRIP gene expression at cytotoxic IC50 measured after 48 hrs relative to control
[32] = Inhibition of RTK/PI3K/AKT/mTOR signaling in human U87 cells assessed as up regulation of TSPAN14 gene expression at cytotoxic IC50 measured after 48 hrs relative to control

Compound CC(=O)C(=NNc1ccccc1C#N)C(C)=O has a log2FC [1] of -1.7, a log2FC [2] of -1.69 and a log2FC [3] of -1.66. For the same compound, the log2FC [4] was -1.52, the log2FC [5] was -1.35 and the log2FC [6] was -1.16. The log2FC [7] was -0.964, the log2FC [8] was -0.881 and the log2FC [9] was -0.846. For the same compound, the log2FC [10] was -0.784, the log2FC [11] was -0.657 and the log2FC [12] was -0.619. The log2FC [13] was -0.591, the log2FC [14] was -0.401 and the log2FC [15] was 2.17. For the same compound, the log2FC [16] was 1.69, the log2FC [17] was 1.66 and the log2FC [18] was 1.58. For the same compound, the log2FC [19] was 1.55, the log2FC [20] was 1.53 and the log2FC [21] was 1.52. It also gave a log2FC [22] of 1.29, a log2FC [23] of 1.26 and a log2FC [24] of 1.11. The log2FC [25] was 1.05, the log2FC [26] was 1.03 and the log2FC [27] was 0.808. It also gave a log2FC [28] of 0.799, a log2FC [29] of 0.661 and a log2FC [30] of 0.66. For the same compound, the log2FC [31] was 0.539 and the log2FC [32] was 0.519.
